Experimental data taken from PMC13171625, “Breaking the ‘rule-of-five’ to access bridged bicyclic heteroaromatic bioisosteres” (Nature Synthesis, 2026).

Assay: Metabolic stability in human liver microsomes

CCCNCC(O)COc1ccccc1C(=O)CCc1ccccc1 (stereo not drawn) [Propafenone]
Remaining (T60) (60 min, human liver microsomes with NADPH): 0.1%
Remaining (NCF60) (1 h incubation, human liver microsomes, no co-factor (no NADPH)): 105.2%
remaining at 5 min, 1 μM (human, liver microsomes): 82.1%
remaining at 0.25 h, 1 μM (human, liver microsomes): 53.2%
remaining at 0.5 h, 1 μM (human, liver microsomes): 19.5%
remaining at 0.75 h, 1 μM (human, liver microsomes): 2.5%
